Results on 42 sequences are retold here after publication PMC7819943, “Rice protein-binding microarrays: a tool to detect cis-acting elements near promoter regions in rice”.

Protein sequences, listed by entry. Tags and fused reporters are not part of them.
UniProt Q0JBA9, entry or part of it: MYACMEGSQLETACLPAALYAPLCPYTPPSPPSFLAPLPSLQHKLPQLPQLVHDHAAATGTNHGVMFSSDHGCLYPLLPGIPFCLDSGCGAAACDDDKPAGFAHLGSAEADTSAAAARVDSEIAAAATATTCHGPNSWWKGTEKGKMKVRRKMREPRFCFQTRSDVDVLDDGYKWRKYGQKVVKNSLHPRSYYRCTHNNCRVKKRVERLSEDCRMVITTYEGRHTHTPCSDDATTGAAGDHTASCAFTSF

The other results are listed elsewhere or left out.

The experiment has as its target OsWRKY34 (Oryza sativa, UniProt Q0JBA9 1-250). In words: protein-binding microarray (RPBM); PBS, 2% BSA, 51.3 ng/ul salmon testes DNA, 50 uM zinc acetate, 200 nM TF, 25 C, 1 h; high values mean tight binding. The conditions noted are these: protein: recombinant; tags: N-terminal polyhistidine and DsRed monomer fusion (pET32a); label: CyDye5-dUTP incorporated in the synthesized complementary strand; 3' TTTTT single-stranded linker to array surface; dsDNA, one strand shown. Put shortly: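 For the binding signal, per-feature fluorescence intensity was read in arbitrary units on an Axon 4000B scanner. Before scanning, a 2% BSA-blocked custom Agilent array made double-stranded with Cy5-dUTP was washed after 1 h at 25 °C with 200 nM protein and 50 µM zinc acetate. The proteins were Ni–NTA-purified transcription factors with N-terminal polyhistidine and DsRed fusions, expressed in E. coli BL21-CodonPlus.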
Turning to “AGTTCTCTTTGTAGGGAGAATACAGTGGTACATGTTTGACCGGAGTCACCTAGTGCAG”, the binding signal was 8170 fluorescence intensity (a.u.).

As for “GTAATCTAAGCTAGCCAGGTCGTCATCTTCTTCCTTCAGCCGGAGTCACCTAGTGCAG”, the binding signal is 9250 fluorescence intensity (a.u.).

As to “ACTACCAAGTTTGACCCTGCTACTTTGTAACCGGCGAACACGGAGTCACCTAGTGCAG”, the binding signal was 8820 fluorescence intensity (a.u.).

With “GCTACAATTGTCCCACTCCTCGGAACATTGGCGGTAGGGGCGGAGTCACCTAGTGCAG”, the binding signal was 8700 fluorescence intensity (a.u.).

With “AACCCATTTGCACACAACCCAAATTTCAAACTAAAACTTCCGGAGTCACCTAGTGCAG”, the binding signal is 8370 fluorescence intensity (a.u.).

On to “TAGCTATATATGCTCCTTTTCTAGCTGAAAATTGGTGGGGCGGAGTCACCTAGTGCAG”, for which the binding signal was 9610 fluorescence intensity (a.u.).

For the sequence “AAGAGGAGAATTTGTGGGTCTTTTGGATGGTTTTGTGAACCGGAGTCACCTAGTGCAG”, the binding signal was 8200 fluorescence intensity (a.u.).

As to “GGACTAATGATGTTTCTTCTGGTGCTAATACCAATCCATCCGGAGTCACCTAGTGCAG”, the binding signal was 10800 fluorescence intensity (a.u.).

Consider “GCTTTTTTCTTTTTTGGTTTCATCTCTCTCCATAGACCATCGGAGTCACCTAGTGCAG”, for which the binding signal is 11800 fluorescence intensity (a.u.).

“ATAATTCTCCTTGTTTAAGTCCATACAATGTTTCTACGACCGGAGTCACCTAGTGCAG”: the binding signal was 9490 fluorescence intensity (a.u.).

Take “CCTGTAATACTTTTGTTAATTCGATCCTACTACATCTTTACGGAGTCACCTAGTGCAG”: the binding signal is 10400 fluorescence intensity (a.u.).

Regarding “GCCGTGATCGCGTTGCCGATCGCGAGCGGCAATCTTTGACCGGAGTCACCTAGTGCAG”, the binding signal is 8260 fluorescence intensity (a.u.).

On to “TTATGGTTTTCACATGTTAGGGTTCTAGTGAGCTTTATCTCGGAGTCACCTAGTGCAG”, for which the binding signal is 9280 fluorescence intensity (a.u.).

“GCGCAACTATAATAGTACTATCTCATATGTTGTTTTTTTTCGGAGTCACCTAGTGCAG”: the binding signal was 9230 fluorescence intensity (a.u.).

As to “GTCCACGTCCCTCGCCGCCGCCACGCTCTCTCGTCTGCCTCGGAGTCACCTAGTGCAG”, the binding signal was 12200 fluorescence intensity (a.u.).

In the case of “CTCACTGAATGTTATACTGCATTACTGGTCTTGTTAAATACGGAGTCACCTAGTGCAG”, the binding signal was 8410 fluorescence intensity (a.u.).

In the case of “GCTTAGCCACACACAGCCTGTCGACCTTTTCAGCATTACTCGGAGTCACCTAGTGCAG”, the binding signal is 8570 fluorescence intensity (a.u.).

Turning to “TGATCATTGCCGGTCGGCGCCCGTGGTTTTTTTCCGCAAGCGGAGTCACCTAGTGCAG”, the binding signal is 8680 fluorescence intensity (a.u.).

With “AAATCACTCGGGGCTGTGGATTATGTGAGGGGAGAATGATCGGAGTCACCTAGTGCAG”, the binding signal is 9540 fluorescence intensity (a.u.).

In the case of “AAGTTATAAGATGTTTTGACTTTGGTCAAAGTCAAACTGCCGGAGTCACCTAGTGCAG”, the binding signal is 14600 fluorescence intensity (a.u.).

Regarding “CTCCCAGCCATTTGTCACCAACCGCAGCGCATCATATCATCGGAGTCACCTAGTGCAG”, the binding signal was 8480 fluorescence intensity (a.u.).

“CATATTTTAATTTTAATGTATGACACCGTTGACTTTTCGACGGAGTCACCTAGTGCAG”: the binding signal is 16000 fluorescence intensity (a.u.).

As to “AGCTCCAATACATCACGCTGCGTTTGCTCCATATCCCATTCGGAGTCACCTAGTGCAG”, the binding signal is 8950 fluorescence intensity (a.u.).

Regarding “TATTTTTGTTCTTTCGCAAATACAGTGCATTTTCCTGTTGCGGAGTCACCTAGTGCAG”, the binding signal was 9470 fluorescence intensity (a.u.).

In the case of “ACCACCGTAAATTTGGTTTTTGATAGAATATATTCTTACACGGAGTCACCTAGTGCAG”, the binding signal was 8340 fluorescence intensity (a.u.).

Consider “CTTTGCAACATTTTACGTCTGATCTGTAGTCGCCACCGTACGGAGTCACCTAGTGCAG”, for which the binding signal is 10600 fluorescence intensity (a.u.).

For “AGCCAGCCCAAAAGCCACGCCGTCCACTCCATCTCCGCCTCGGAGTCACCTAGTGCAG”, the binding signal was 8440 fluorescence intensity (a.u.).

In the case of “ACTAATTTGATATGAAAGTTGGACTTCTCATTGCAGCTCACGGAGTCACCTAGTGCAG”, the binding signal is 9040 fluorescence intensity (a.u.).

“GCGGAGCGTTGGGTTGGGGATCAGGTCGTCGACGCACGCCCGGAGTCACCTAGTGCAG”: the binding signal is 10200 fluorescence intensity (a.u.).

Take “ACAGCGCCATTTACTTGCCATCCAATGGATCAACTCATTCCGGAGTCACCTAGTGCAG”: the binding signal is 9080 fluorescence intensity (a.u.).

Turning to “TCTTCAATAGTACACTAACTACAATTGCATCACTACCAGTCGGAGTCACCTAGTGCAG”, the binding signal was 8620 fluorescence intensity (a.u.).

With “TCCAAACTATAGTTCCGTGCTTCCGTTTCCTAGTGGTTTTCGGAGTCACCTAGTGCAG”, the binding signal was 8190 fluorescence intensity (a.u.).

With “CTGGGTCTGTTCTGTCTGCTTTCACAGGGAGATTTGTTGACGGAGTCACCTAGTGCAG”, the binding signal is 10100 fluorescence intensity (a.u.).

Take “GTGATATGGCACTCAAATCGTACATTTTTCCTATCATTGTCGGAGTCACCTAGTGCAG”: the binding signal was 8550 fluorescence intensity (a.u.).

With “ATTATCCAAAGTAATTTAAGCATAACTTTTTGTTTTTTATCGGAGTCACCTAGTGCAG”, the binding signal is 8120 fluorescence intensity (a.u.).

As for “GCGGCGAAGACGAGGGCGGGGAGGCAGCGGCGAAGAGGTCCGGAGTCACCTAGTGCAG”, the binding signal is 9170 fluorescence intensity (a.u.).

For the sequence “AGGGTTGAGATTTAGGGTGTGTTTGGTTCACGGTCATGTACGGAGTCACCTAGTGCAG”, the binding signal was 8460 fluorescence intensity (a.u.).

As for “ATCATTTTCCTATCCCATTAGTCAAACACTGCCTAGCTACCGGAGTCACCTAGTGCAG”, the binding signal is 9960 fluorescence intensity (a.u.).

With “ATCAATCTGGACCGTATATTTTTGATCGGACGGTTCAAACCGGAGTCACCTAGTGCAG”, the binding signal was 8670 fluorescence intensity (a.u.).

Take “AATCCTATATTTTTTCTATTCCTCCGTTTTTTTCAATCTTCGGAGTCACCTAGTGCAG”: the binding signal was 8700 fluorescence intensity (a.u.).

Regarding “CCACATTTTGCGCAAAAATGCTCATATGCGTCATGCTGACCGGAGTCACCTAGTGCAG”, the binding signal was 8150 fluorescence intensity (a.u.).

As for “CTTTCCTCCTCCGCAAGGTCGGTTTCCTTTTGTCCTTTCACGGAGTCACCTAGTGCAG”, the binding signal was 10600 fluorescence intensity (a.u.).
